Over roughly 3,200 compounds, “TSA(with NAD+) / Primary screening (TSA) / delta Tm (K)” has its median near -0.04; the highest 2% begin near 0.37. This is one part of the list.

By UniProt entry, the sequences of proteins in these tests, tags left out. Residues count along the entry.
UniProt Q96EB6, 2-747 limits assumed: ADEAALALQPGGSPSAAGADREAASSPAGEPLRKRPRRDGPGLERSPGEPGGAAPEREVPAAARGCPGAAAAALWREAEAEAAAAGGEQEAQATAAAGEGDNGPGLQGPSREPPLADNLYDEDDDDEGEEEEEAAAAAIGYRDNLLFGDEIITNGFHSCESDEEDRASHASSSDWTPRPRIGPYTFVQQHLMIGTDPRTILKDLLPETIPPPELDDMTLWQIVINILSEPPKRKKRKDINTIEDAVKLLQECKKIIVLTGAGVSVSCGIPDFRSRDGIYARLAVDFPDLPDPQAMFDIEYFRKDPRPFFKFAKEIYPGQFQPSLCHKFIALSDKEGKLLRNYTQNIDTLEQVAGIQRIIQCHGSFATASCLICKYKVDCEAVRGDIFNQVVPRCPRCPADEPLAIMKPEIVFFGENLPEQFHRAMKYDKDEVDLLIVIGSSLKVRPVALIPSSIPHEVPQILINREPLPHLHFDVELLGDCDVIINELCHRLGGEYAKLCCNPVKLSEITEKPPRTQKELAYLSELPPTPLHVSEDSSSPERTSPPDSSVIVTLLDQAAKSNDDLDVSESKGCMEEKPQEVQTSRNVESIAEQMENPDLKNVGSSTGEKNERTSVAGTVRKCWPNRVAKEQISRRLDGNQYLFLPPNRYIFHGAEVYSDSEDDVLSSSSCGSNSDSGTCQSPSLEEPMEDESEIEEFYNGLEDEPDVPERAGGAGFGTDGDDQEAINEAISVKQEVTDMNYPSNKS

This experiment concerns the target NAD-dependent deacetylase Sirtuin 1 (human, UniProt Q96EB6). The experiment in a line: primary screen, delta tm. The conditions noted are these: 10 µM. Details: single well (n = 1, as 'the same TSA'). How it is done: A total of 3,192 compounds extracted from the proposed lists were first screened by thermal shift assay (TSA), which determined a melting temperature shift (ΔTm) of Sirtuin 1 upon the addition of a test compound at a concentration of 10 µM (n = 1) with primary hit criteria of ΔTm > 0.45 K or ΔTm < −1.5 K. Primary hits (48 compounds) were retested in the same assay at three concentrations (5, 10, 20 µM, n = 4) for hit confirmation and for dose-dependency check. Secondary hits (41 compounds) were checked their selectivity for Sirtuin 1 based on counterscreening on unrelated protein targets (bovine carbonic anhydrase (CA) and recombinant SH2 domain of hABL1 kinase (ABL1)) at three different concentrations (5, 10, 20 µM, n = 4), which yielded 38 hit compounds, hereafter referred to as TSA hits. The TSA screening above was conducted in the absence of NAD+. As noted, the structure of Sirtuin 1 is different in the presence of NAD+ and substrate. The chemical profile of TSA hits found from the different conditions could be different. […] As a result, 39 TSA hits were found.
`Cc1ccc(C(=O)CCC(=O)Nc2cc(C(N)=O)ccc2N2CCCC2)cc1`: the “TSA(with NAD+) / Primary screening (TSA) / delta Tm (K)” value is -0.03 K.
Consider `Cc1nc(CSc2nncs2)oc1-c1ccc(Cl)cc1`, for which the “TSA(with NAD+) / Primary screening (TSA) / delta Tm (K)” value is -0.06 K.
As to `C=C(C)COCCN`, the “TSA(with NAD+) / Primary screening (TSA) / delta Tm (K)” value is given as -0.23 K.
To `CCCOc1ccc(C(=O)C2=C(O)C(=O)N(CCCN3CCOCC3)C2c2cccc(OC)c2)cc1` (stereo not shown) belongs -0.06 K; to `COc1ccc(C(=O)C2=C(O)C(=O)N(CCCN3CCOCC3)C2c2ccc(N(C)C)cc2)cc1` (stereo not shown), -0.13 K; to `CCCCOc1cc(C2NC(N)=Nc3nc4ccccc4n32)ccc1OC` (stereo not shown), -0.22 K.
With `Cc1cncc(CCCN2CCN(c3ccc(C#N)cc3F)CC2)c1`, the “TSA(with NAD+) / Primary screening (TSA) / delta Tm (K)” value was 0.09 K.
As for `O=c1[nH]cnc2c1cnn2-c1cccc(Cl)c1`, the figure is -0.13 K; as for `CCOC(=O)c1c(NC(=O)C(C)OC(=O)CNC(=O)c2cc(C)cc(C)c2)sc2c1CCC(C)C2` (stereo not shown), -0.21 K.
In the case of `CCc1cc2c(N3CCCC(C)C3)ncnc2s1` (stereo not shown), the “TSA(with NAD+) / Primary screening (TSA) / delta Tm (K)” value is -0.11 K.
Turning to `COc1cccc(C(=O)C2=C(O)C(=O)N(CCCN3CCOCC3)C2c2ccc(C)cc2)c1` (stereo not shown), the “TSA(with NAD+) / Primary screening (TSA) / delta Tm (K)” value came out at 0.02 K.
As for `N#Cc1ccccc1CN1CCC(OC(=O)C2=COCC2)CC1`, the figure is -0.03 K; as for `CCc1nn2c(=O)cc(CN3CCCc4ccccc43)nc2s1`, -0.11 K.
As to `COc1ccc(N(C)S(=O)(=O)c2cccc(C(=O)Nc3sccc3C#N)c2)cc1`, the “TSA(with NAD+) / Primary screening (TSA) / delta Tm (K)” value was 0.28 K.
To `Cc1ccc2[nH]c(C(=O)O)cc2c1` belongs -0.04 K; to `Cc1ccc2c(c1)CCCN2C(=O)CCn1ncc(=O)c2ccccc21`, -0.06 K; to `O=C(OCc1ccc(COC(=O)c2ccncc2)cc1)c1ccncc1`, -0.12 K.
As for `COc1ccc(OCC(=O)NCC2(C)CC(NC(=O)COc3ccc(OC)cc3)CC(C)(C)C2)cc1` (stereo not shown), the figure is -0.18 K; as for `O=c1[nH]c(CN(Cc2ccco2)C2CCCC2)nc2c1oc1ccccc12`, 0.06 K.
For `O=c1[nH]cnc2c1nnn2-c1ccccc1`, the “TSA(with NAD+) / Primary screening (TSA) / delta Tm (K)” value is listed as -0.18 K.
With `Clc1ccc2c(N3CCN(Cc4ccc5c(c4)CCO5)CC3)ncnc2c1`, the “TSA(with NAD+) / Primary screening (TSA) / delta Tm (K)” value is given as -0.08 K.
For the compound `CCOC(=O)c1ncn(C2CCN(c3ncnc4c(F)cccc34)CC2)c1N`, the “TSA(with NAD+) / Primary screening (TSA) / delta Tm (K)” value is listed as -0.01 K.
As for `CCS(=O)(=O)c1ccc(N2CCC(Cc3cccnc3)CC2)cc1`, the figure is -0.09 K; as for `Cc1ccc2[nH]cc(C(=O)C(F)(F)F)c2c1`, -0.02 K.
In the case of `CCCNC(=O)CN1CCN(c2c(C)cnc3ccccc23)CC1`, the “TSA(with NAD+) / Primary screening (TSA) / delta Tm (K)” value is on record as -0.02 K.
Turning to `CN(CC12CC3CC(CC(C3)C1)C2)C(=O)c1cc2ccccc2oc1=O`, the “TSA(with NAD+) / Primary screening (TSA) / delta Tm (K)” value is -0.16 K.
For the compound `Cc1ccc(-c2csc3ncn(CC(=O)NCC(=O)Nc4cccc(C)c4C)c(=O)c23)s1`, the “TSA(with NAD+) / Primary screening (TSA) / delta Tm (K)” value is given as -0.02 K.
As to `COc1cc(CN(C)C(=O)c2cccc(NC(C)=O)c2)ccc1OCc1ccccc1`, the “TSA(with NAD+) / Primary screening (TSA) / delta Tm (K)” value is listed as -0.01 K.
Take `O=C(c1sc(N2CCOCC2)nc1-c1ccccc1)c1c[nH]c2ccccc12`: the “TSA(with NAD+) / Primary screening (TSA) / delta Tm (K)” value is listed as 0.06 K.
As for `CC(C)n1c(S)nnc1CCNC(=O)/C=C/c1ccc(Br)o1`, the figure is -0.11 K.
Regarding `NS(=O)(=O)c1cccc(NC(=O)CSc2n[nH]c(=O)n2Cc2ccccc2)c1`, the “TSA(with NAD+) / Primary screening (TSA) / delta Tm (K)” value is -0.11 K.
As for `COc1cc(CN(C)C(=O)Cc2c(C)nc3ccccc3c2C)ccc1OCc1ccccc1`, the figure is 0.05 K; as for `Cc1nc2ncnn2c(N2CCC(C(=O)Nc3cccnc3)CC2)c1C`, -0.03 K; as for `N#Cc1ccc(F)c(CNC(=O)NC2CCCCNC2=O)c1` (stereo not shown), -0.13 K.
As for `C#CCCN`, the figure is -0.01 K; as for `Fc1ccc(-n2ncc3c(S)ncnc32)cc1`, -0.01 K.
`CN(c1ccccc1)S(=O)(=O)c1cccc(C(=O)OCc2cc(=O)oc3cc(O)ccc23)c1`: the “TSA(with NAD+) / Primary screening (TSA) / delta Tm (K)” value was 0.03 K.
For `c1ccc(-c2c3c(nc4sc5c(c24)CCCC5)-c2ccccc2CC3)cc1`, the “TSA(with NAD+) / Primary screening (TSA) / delta Tm (K)” value stood at 0.06 K.
Turning to `COc1ccc(Br)cc1/C=C1/COc2ccccc2C1=O`, the “TSA(with NAD+) / Primary screening (TSA) / delta Tm (K)” value is -0.23 K.
As for `CC(=O)Nc1ccc(NC(=O)c2cccc(C(N)=O)c2)cc1C`, the figure is -0.12 K; as for `C=CCOc1cccc(C2C(C(=O)c3ccc(OC)cc3)=C(O)C(=O)N2CCCN2CCOCC2)c1` (stereo not shown), -0.01 K.
To `CC(OC(=O)C1=COCCO1)C(=O)Nc1ccc(N2CCOCC2)cc1` (stereo not shown) belongs -0.06 K.
For the compound `O=c1cc(NCc2ccccc2Cn2cccn2)nc2ccccn12`, the “TSA(with NAD+) / Primary screening (TSA) / delta Tm (K)” value is -0.11 K.
Take `Cc1ccc(F)c(/N=C/c2ccccc2O)c1`: the “TSA(with NAD+) / Primary screening (TSA) / delta Tm (K)” value was -0.08 K.
As for `CC(OC(=O)C1CCCN1C(=O)C12CC3CC(CC(C3)C1)C2)C(=O)c1c[nH]c2ccccc12` (stereo not shown), the figure is -0.06 K; as for `Cc1ccc(N(Cc2ccccc2)C(=O)N(C)Cc2cnccn2)cc1`, -0.15 K; as for `CC(NC(=O)COC(=O)c1ccc(NS(=O)(=O)c2ccc3c(c2)OCCO3)cc1)C12CC3CC(CC(C3)C1)C2` (stereo not shown), 0.27 K.
To `Cc1cc(F)ccc1N1CCCC(Nc2ccc3nnnn3n2)C1` (stereo not shown) belongs 0.68 K.
On to `CC1(NC(=O)CSc2nnc(NCCc3cccs3)s2)CCS(=O)(=O)C1` (stereo not shown), for which the “TSA(with NAD+) / Primary screening (TSA) / delta Tm (K)” value is listed as -0.09 K.
As for `COc1ccc2[nH]cc(C3CCN(C(=O)c4coc(C)c4)CC3)c2c1`, the figure is 0.01 K; as for `O=C(COC(=O)c1ccc2c(c1)S(=O)(=O)c1ccccc1C2=O)Nc1ncc(Cl)cc1Cl`, 0.15 K; as for `C=CCN(C(=O)CSc1nnc(-c2ccccc2)o1)c1nc(-c2ccccc2)cs1`, -0.12 K.
As for `Cn1ncc2c(=O)cc[nH]c21`, the figure is -0.03 K; as for `COc1cc(C)ccc1Oc1ccc(NC(=O)Cc2c(C)nc(-c3ccccn3)[nH]c2=O)cn1`, 0.06 K; as for `COc1ccc(Br)cc1/C=C1/Cc2ccccc2C1=O`, -0.15 K.
As for `CCN(C(=O)COC(=O)CN1C(=O)NC2(CCCc3ccccc32)C1=O)c1nc2ccccc2s1` (stereo not shown), the figure is -0.26 K; as for `O=C(C1=C(O)C(=O)N(CCCN2CCOCC2)C1c1cccc([N+](=O)[O-])c1)c1ccc(F)cc1` (stereo not shown), 0.06 K.
On to `O=C(CNc1cnc2ccccc2n1)N1CCCc2ccccc21`, for which the “TSA(with NAD+) / Primary screening (TSA) / delta Tm (K)” value is on record as -0.03 K.

The record behind these values is publication PMC6925144, “A prospective compound screening contest identified broader inhibitors for Sirtuin 1” (Scientific Reports, 2019).
